The source of these data is PubChem BioAssay AID493014 (National Center for Advancing Translational Sciences (NCATS), 2011).

This assay is described as follows: qHTS Assay to Find Inhibitors of Chronic Active B-Cell Receptor Signaling. Conditions: ABC-DLBCL IkBa-CBG/CBR reporter, luminescence ratio (green luciferase fused to IkBa over red control in TMD8 lymphoma cells), 4 h. In a few lines: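 TMD8 ABC-DLBCL cells carrying doxycycline-inducible green luciferase fused to IkappaBalpha plus unfused red luciferase were exposed to compounds (up to 46 uM) for 4 hrs at 37C. Activity came from the overlap-corrected green/red luminescence ratio.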

The mark [1] stands for this setting: measured here: CBR red luminescence, cell number.
The mark [2] stands for this setting: measured here: IkBa-CBG green luminescence.

Some of the results follow. Shown are side measurements of this screen, not its main read-out; they come without a call. The list favours compounds with an active or inconclusive main result. The note in brackets gives the kind of curve behind each potency; many fits are weak.

In the case of `Cc1[nH]c2ccccc2c1/C=C/c1nc2ccccc2c(=O)n1CCO`, the AC50 under setting [1] was 7.94 µM [falling, partial curve].
With `Cc1[nH]c2ccccc2c(=O)c1C(=O)/C=C/c1ccccc1`, the AC50 under setting [1] was 3.98 µM [falling, full curve].
In the case of `C=CCc1cccc(/C=N/c2ncn[nH]2)c1O`, the AC50 reads like this: under setting [1], 18.4 µM [falling, single point]; under setting [2], 32.6 µM [rising, partial curve, poor fit].
As to `COc1ccc2oc(C(=O)OCC(=O)N3CCCC(C)C3)c(C)c2c1` (stereo unspecified), the half-maximal activity concentration (AC50) under setting [1] was 8.2 µM [falling, partial curve].
Take `Cc1cccc(C2C=C(c3ccc(F)cc3)Nc3nc4ccccc4n32)c1` (stereo unspecified): the AC50 under setting [1] was 8.91 µM [falling, partial curve].
Take `O=C(NCC1CCCO1)C(c1ccc(F)cc1)N(CCCN1CCOCC1)C(=O)c1ccc(-c2ccccc2)[nH]1` (stereo unspecified): under setting [2], the AC50 was 20 µM [rising, partial curve, poor fit].
On to `CC(=O)OCCNc1cc(Sc2nc3ccccc3[nH]2)c2nonc2c1[N+](=O)[O-]`, for which the AC50 under setting [2] was 5.17 µM [falling, partial curve, poor fit].
Take `CCCC(C)C(=O)Nc1cc([N+](=O)[O-])ccc1Cl` (stereo unspecified): the AC50 under setting [1] was 0.224 µM [rising, full curve, poor fit].
With `Nc1c(C(O)(C(F)(F)F)C(F)(F)F)cc(C(O)(C(F)(F)F)C(F)(F)F)c2ccccc12`, under setting [1], the AC50 was 29.1 µM [falling, single point].
Same read-out and setting: next, `Cc1sc(N)nc1C12CC3CC(CC(C3)C1)C2`: 31.6 µM [rising, partial curve, poor fit]; `CC(C)[C@H](NC(=O)OC(C)(C)C)c1nnc(S(=O)(=O)Cc2c(F)cccc2Cl)o1`: 0.92 µM [falling, full curve, poor fit]; `O=C(NCCc1ccccc1)c1ccc(NC(=O)c2cccnc2)cc1`: 35.5 µM [rising, single point].
As to `CC(C)c1ccc(NC(=O)c2ccc(Br)o2)cc1`, under setting [2], the AC50 is 25.9 µM [falling, partial curve, poor fit].
With `Nc1nnc(SCC(=O)c2ccccc2)s1`, the AC50 under setting [1] was 14.1 µM [falling, single point].
The same measure, in the same setting: the result for `Oc1ccccc1N=Cc1ccc[nH]1` reads 2.31 µM [falling, full curve]; that for `CCc1nn(CC(=O)NCCCN2CCOCC2)c(=O)c2cc3sccc3n12`, 12.6 µM [rising, partial curve].
With `COc1ccc(C2C=C(c3ccc(C)c(C)c3)Nc3ncnn32)c(OC)c1OC` (stereo unspecified), the AC50 reads like this: under setting [1], 0.562 µM [rising, full curve]; under setting [2], 7.94 µM [falling, partial curve, poor fit].
For `Cc1cc(C)n2c(Br)c(CSc3nc4ccccc4s3)nc2n1`, the AC50 under setting [1] was 23.1 µM [rising, partial curve, poor fit].
As to `CCN(CC)c1nc2ccccc2n2cnnc12`, under setting [1], the AC50 was 12.6 µM [rising, partial curve, poor fit].
Turning to `COc1ccc(-c2noc(CN(C)Cc3ccccc3)n2)c(OC)c1OC`, the AC50 under setting [1] is 0.501 µM [rising, full curve, poor fit].
As to `COc1ccc(CNC(=O)COc2ccc(Br)c(C)c2)cc1`, under setting [1], the AC50 is 7.94 µM [falling, partial curve, poor fit].
As for `C=CCOc1c(CNc2ccc(C(=O)O)cc2)cccc1OCC`, the AC50 under setting [1] was 35.5 µM [falling, single point].
Still for that read-out and setting: the result for `O=[N+]([O-])c1ccc(C=Nc2cccc3ccccc23)s1` reads 22.4 µM [rising, single point].
With `COc1ccccc1C(OC(=O)c1cccs1)C(=O)NCc1ccco1` (stereo unspecified), under setting [1], the AC50 was 31.6 µM [falling, single point].
Turning to `CC(C)c1nnc(NC(=O)c2nc(S(=O)(=O)Cc3ccccc3F)ncc2Cl)s1`, the AC50 was 22.4 µM [falling, single point] under setting [1] and 11.2 µM [rising, partial curve, poor fit] under setting [2].
Take `CNC(=O)C(=O)N/N=C/c1ccc(Br)cc1`: the AC50 under setting [1] is 35.5 µM [rising, partial curve, poor fit].
Same read-out and setting: next, `CCOC(=O)C1CCCN(C(=O)c2cc(CN3C(=O)c4ccccc4C3=O)ccc2OC)C1` (stereo unspecified): 29.1 µM [rising, single point]; `CC(=O)c1sc(NC(=O)COc2ccccc2)nc1C`: 3.55 µM [falling, full curve, poor fit]; `CCOc1cc(/C=N/NC(=O)c2ccc(-c3csc(Nc4ccc(C)cc4)n3)cc2)ccc1OCC(=O)O`: 2 µM [falling, full curve].
Turning to `Fc1cccc(NC(=S)N2CCN(c3ccccn3)CC2)c1`, the AC50 under setting [1] is 5.62 µM [rising, single point].
As for `O=[N+]([O-])c1ccccc1/C=C/C=N/n1c(-c2ccco2)n[nH]c1=S`, under setting [1], the AC50 was 35.5 µM [falling, single point].
With `COc1ccc(NC(=O)c2ccccc2)cc1NS(=O)(=O)c1ccc(F)cc1`, the concentration at half-maximal activity (AC50) under setting [1] is 13 µM [rising, partial curve, poor fit].
Take `O=C(Nc1cccc(C(F)(F)F)c1)c1cccnc1NCCO`: the AC50 under setting [1] is 28.2 µM [rising, single point].
On to `CCOC(=O)N1CCN(C(=O)C2CCN(S(=O)(=O)c3ccccc3)CC2)CC1`, for which the AC50 under setting [1] was 25.9 µM [rising, partial curve, poor fit].
Same read-out and setting: next, `COc1cc(C(=O)OC(C)C(=O)N2CCCC2)cc2c1OCCO2` (stereo unspecified): 6.51 µM [rising, single point]; `Cc1n[nH]c(=S)n1/N=C/c1ccc(OCc2ccc(Cl)cc2Cl)cc1`: 29.1 µM [falling, single point].
In the case of `CC(CSc1nnnn1-c1ccccc1)Cn1c(N2CCCC2)nc2c1c(=O)[nH]c(=O)n2C` (stereo unspecified), the AC50 under setting [2] is 5.17 µM [falling, partial curve, poor fit].
As for `O=c1cc(-c2ccccc2)[nH]c2nc3ccccc3n12`, the AC50 under setting [1] is 0.259 µM [falling, full curve].
Take `COc1ccc(CCNCC(O)COc2ccc(OC)cc2C(C)(C)C)cc1` (stereo unspecified): the concentration at half-maximal activity (AC50) under setting [1] was 31.6 µM [falling, single point].
On the same count and under the same terms, the result for `O=C(NNC(=O)c1ccccc1[N+](=O)[O-])c1ccccc1[N+](=O)[O-]` reads 10 µM [falling, single point]; that for `COc1ccccc1NC(=O)CSc1nc(O)c(Cc2ccccc2)c(=O)[nH]1`, 16.4 µM [falling, single point].
For `O=C(COC(=O)c1ccccc1NC(=O)c1ccco1)NC1CC1`, the AC50 under setting [1] was 11.2 µM [falling, partial curve, poor fit].
As for `c1ccc2nc(-c3ccc(N4CCOCC4)cc3)ccc2c1`, the concentration at half-maximal activity (AC50) under setting [1] is 0.0058 µM [rising, full curve, poor fit].
In the case of `CCC(=O)n1nc(-c2ccccc2)nc1SCC(=O)Nc1ccc(C)cc1`, under setting [1], the AC50 is 4.47 µM [falling, full curve, poor fit].
Still for that read-out and setting: next, `COc1ccccc1NC(=O)CN(Cc1ccco1)C(=O)c1cccs1`: 23.1 µM [falling, single point]; `CCOc1cc(NC(=O)C2CC2)c(OCC)cc1NC(=O)c1ccccn1`: 1.46 µM [rising, full curve, poor fit].
The same measure, in the same setting: the result for `C#CCOCCOCCOCCNc1nc(N2CCN(C(=O)C([C@@H](C)CC)n3cc(C(N)CO)nn3)CC2)nc(N2CCN(C(=O)[C@H](CCC(=O)O)n3cc(C(N)[C@H](C)CC)nn3)CC2)n1` (stereo partly specified) reads 5.62 µM [rising, single point]; that for `COc1cc2c(cc1OC)N1C(=O)CC(OCC(=O)O)C3C4CC5(CCN5C(=O)C4=O)C2C31` (stereo unspecified), 11.2 µM [falling, partial curve, poor fit].
Turning to `CCN(CC(=O)Nc1cc(Cl)ccc1C)C(=O)C1CC1`, the AC50 under setting [2] was 18.4 µM [falling, partial curve, poor fit].
As to `O=C(Nc1cccc(Cl)c1)c1ccc(Cn2cc(Cl)cn2)cc1`, the AC50 under setting [1] is 5.17 µM [falling, partial curve, poor fit].
For the molecule `COc1cc(OC)cc(C(=O)N/N=C\c2ccoc2)c1`, the AC50 by setting is: under setting [1], 3.55 µM [falling, partial curve]; under setting [2], 17.8 µM [falling, single point].
Turning to `CC1=C[C@H]2Cc3cc(C)cc(C)c3S(=O)(=O)[C@@H]2C=C1`, the AC50 under setting [2] is 20.6 µM [rising, partial curve, poor fit].
As for `CC1CCN(CCOCCOc2ccc(Br)cc2Cl)CC1`, under setting [1], the half-maximal activity concentration (AC50) was 29.1 µM [falling, partial curve, poor fit].
Same read-out and setting: the result for `COc1ccc(C2(O)CC3CCC(C2)N3c2cc(C)nc(-c3ccccc3)n2)cc1` (stereo unspecified) reads 12.6 µM [falling, partial curve, poor fit]; that for `COc1ccccc1Nc1nc(N)nc(CSC(=S)N2CCN(c3ccccc3)CC2)n1`, 0.251 µM [rising, full curve, poor fit].
For the molecule `CC1=NN=C(c2ccccc2)C(c2c[nH]c3ccccc23)N1O` (stereo unspecified), the concentration at half-maximal activity (AC50) under setting [1] is 0.058 µM [rising, full curve, poor fit].
In the case of `O=C(NCc1ccncc1)/C(=C/c1cccc([N+](=O)[O-])c1)NC(=O)c1ccccc1`, the AC50 under setting [1] is 20 µM [rising, single point].
In the case of `O=C(NCC1CCCO1)c1csc(Nc2cccc3ccccc23)n1` (stereo unspecified), the AC50 under setting [1] was 31.6 µM [falling, single point].
For `CN(C(=O)/C=C/c1ccccc1)C1CCS(=O)(=O)C1` (stereo unspecified), the AC50 under setting [1] is 2.91 µM [rising, full curve].
On the same count and under the same terms, the result for `COC(=O)c1cc(C(=O)NCc2ccccc2)c(=O)[nH]c1C` reads 1.12 µM [falling, full curve, poor fit]; that for `Cc1ccc(C)c(NC(=S)c2ccc3ccccc3n2)c1`, 23.1 µM [rising, single point]; that for `COc1cccc(NC(=O)Nc2cccnc2)c1`, 25.1 µM [falling, partial curve, poor fit].
